Tests used:
LI6669B organoid = assay: PDXO organoid growth inhibition (CTG 3D), liver cancer LI6669B; format: cell-based, human; conditions: EGFR wild-type
Procedure: (§1) • a) 20 μl of 100× Dispase solution was added in to a 6-well plate (containing 2 mL of organism culture medium), and organoid was collected from each well. b) The 6-well plate was returned into the incubator and cultured at 37° C. for 30 min. c) The organoid was collected from the 6-well plate, and transferred by a pre-wetted 100 μm filter into a 50 mL plastic tube. d) Once all the wells were filtered by 100 μm filter, the flow was filtered by a pre-wetting 20 μm filter. e) The 20 μm filter was inverted, and the organoid was collected in a new 50 mL tube. f) The organoid was collected and re-suspended in the corresponding culture medium. The organoid was calculated for their concentrations. g) The cell concentration was adjusted with the medium to an appropriate concentration. h) Matrigel was added to a final concentration of 5% v/v, and the organoid was suspended on ice. i) 40 μL of cell suspension was added with a Multidrop dispenser into a 384-well plate. […]
(§2) 40 μL of CTG 3D was added into each well by a Multidrop dispenser; the content was mixed on a plate oscillator for 5 min; and then the place was incubated at room temperature in dark for 30 min. The luminous signal was read on an Envision plate reader. […]

CR5082B organoid = assay: PDXO organoid growth inhibition (CTG 3D), colorectal cancer CR5082B; format: cell-based
Procedure: as §1, §2

CR3099B organoid = assay: PDXO organoid growth inhibition (CTG 3D), colorectal cancer CR3099B; format: cell-based
Procedure: as §1, §2

LU1235B organoid = assay: PDXO organoid growth inhibition (CTG 3D), lung cancer LU1235B; format: cell-based; conditions: EGFR wild-type
Procedure: as §1, §2

LU5162B organoid = assay: PDXO organoid growth inhibition (CTG 3D), lung cancer LU5162B; format: cell-based
Procedure: as §1, §2

GA2434B organoid = assay: PDXO organoid growth inhibition (CTG 3D), gastric cancer GA2434B; format: cell-based
Procedure: as §1, §2

PA0787B organoid = assay: PDXO organoid growth inhibition (CTG 3D), pancreatic cancer PA0787B; format: cell-based
Procedure: as §1, §2

CR5043B organoid = assay: PDXO organoid growth inhibition (CTG 3D), colorectal cancer CR5043B; format: cell-based
Procedure: as §1, §2

PA20078B organoid = assay: PDXO organoid growth inhibition (CTG 3D), pancreatic cancer PA20078B; format: cell-based; conditions: EGFR wild-type
Procedure: as §1, §2

LU11624B organoid = assay: PDXO organoid growth inhibition (CTG 3D), lung cancer LU11624B; format: cell-based
Procedure: as §1, §2

LI6677B organoid = assay: PDXO organoid growth inhibition (CTG 3D), liver cancer LI6677B; format: cell-based; conditions: EGFR wild-type
Procedure: as §1, §2

CR20035B organoid = assay: PDXO organoid growth inhibition (CTG 3D), colorectal cancer CR20035B; format: cell-based; conditions: EGFR wild-type, read Day 5
Procedure: as §1, §2

GA6833B organoid = assay: PDXO organoid growth inhibition (CTG 3D), gastric cancer GA6833B; format: cell-based; conditions: EGFR wild-type
Procedure: as §1, §2

CN[C@@H]1C[C@H]2O[C@@](C)([C@@H]1OC)n1c3ccccc3c3c4c(c5c6ccccc6n2c5c31)C(=O)NC4 [Staurosporine, reference compound]
Maximum Inhibition Rate (%) (LI6669B organoid): 100.07% | Maximum Inhibition Rate (%) (CR5082B organoid): 99.98% | Maximum Inhibition Rate (%) (CR3099B organoid): 100.64% | Maximum Inhibition Rate (%) (LU1235B organoid): 100.13% | Maximum Inhibition Rate (%) (LU5162B organoid): 100.03% | Maximum Inhibition Rate (%) (GA2434B organoid): 99.98% | Maximum Inhibition Rate (%) (PA0787B organoid): 100.06% | Maximum Inhibition Rate (%) (CR5043B organoid): 100.00% | Maximum Inhibition Rate (%) (PA20078B organoid): 100.72% | Maximum Inhibition Rate (%) (LU11624B organoid): 100.05% | Maximum Inhibition Rate (%) (LI6677B organoid): 100.10% | Maximum Inhibition Rate (%) (CR20035B organoid): 100.04% | Maximum Inhibition Rate (%) (GA6833B organoid): 100.01%

Source: patent US20240424071A1, “NOVEL MUTANT OF RECOMBINANT GANODERMA LUCIDUM IMMUNOMODULATORY PROTEIN AND USE THEREOF” (CHANGCHUN INTELLICROWN PHARMACEUTICAL CO., LTD., priority 2021, published 2024)
